{
  "source": "PubChem BioAssay AID504467",
  "about": "(National Center for Advancing Translational Sciences (NCATS), 2011)",
  "note": "About 7,700 (2.3%) of roughly 330,000 compounds were called active. The shares of active, inactive and inconclusive entries below differ from those in the screen. Calls come from the whole dose curve; as a rule, active = well fitted inhibition curve with a large enough effect; inconclusive = small, poorly fitted or top-dose-only effect, or effect the other way; inactive = flat fitted curve, though single readings scatter. Potencies beside an inconclusive call are fits to weak or partial responses and may not hold up. % is set by controls: 0 for no effect and ±100 for the full control effect; potency is the fitted concentration of half-maximal effect.",
  "data": [
    {"test": "qHTS screen for small molecules that inhibit ELG1-dependent DNA repair in human embryonic kidney (HEK293T) cells expressing luciferase-tagged ELG1; note: nearly all actives have a fitted effect of over 55% in size", "conditions": "HEK293T ELG1-luciferase reporter, luminescence, 16 h, DNA damage induced by 5-fluorouridine; activity change, negative = inhibition: at 46.1 µM (top of the series)", "method_in_brief": "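Quantitative HTS, concentration-response format. 2,000 cells/well co-treated with 5-fluorouridine and compound, 16 hr in 5% CO2 at 37 °C; ONE-Glo luminescence read after 30 min.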", "values": [
      {"compound": "O=C(CNc1cccc([N+](=O)[O-])c1)NC(=O)NC1CCCCC1", "activity change, negative = inhibition": "inactive: -7.44%"},
      {"compound": "CCP(=O)(CC)c1cccc(N)c1", "activity change, negative = inhibition": "inactive: 0.663%"},
      {"compound": "COc1ccc(NC(=O)N2CCc3ccccc3C2)c(OC)c1", "Potency": "inconclusive: 10.3 µM [activator, partial curve, poor fit]"},
      {"compound": "CC(=O)c1nn(-c2ccc(C(F)(F)F)cc2)c(=O)[nH]c1=O", "activity change, negative = inhibition": "inactive: 13.3%"},
      {"compound": "COc1ccc2c(c1OC)C(=O)N1N=C(c3ccc(F)cc3)CC21", "note": "(configuration not stated)", "activity change, negative = inhibition": "inactive: 5.42%"},
      {"compound": "C[C@H](NCCc1ccc(O)cc1)[C@H](O)c1ccc(O)cc1", "Potency": "inconclusive: 2.51 µM [activator, full curve, poor fit]"},
      {"compound": "CCc1ccc(C(=O)CN2C(=O)NC(C)(c3ccc(C)cc3)C2=O)cc1", "note": "(configuration not stated)", "activity change, negative = inhibition": "inactive: 1.91%"},
      {"compound": "CCOc1ccc(C(=O)NCCn2cc(SCC(=O)Nc3cc(C)on3)c3ccccc32)cc1", "Potency": "inconclusive: 20.6 µM [inhibitor, partial curve, poor fit]"},
      {"compound": "CC(=O)Nc1cccc(OCCCNC(=O)c2ccc(F)cc2)c1", "Potency": "inconclusive: 10.3 µM [activator, partial curve]"},
      {"compound": "COC(=O)c1cc(OC)c(OC)cc1NC(=O)c1cccc(C)c1", "Potency": "inconclusive: 20.6 µM [inhibitor, partial curve]"},
      {"compound": "CC(=O)c1c(C)[nH]c(C(=O)OCC(=O)Nc2ccc([N+](=O)[O-])cc2Cl)c1C", "Potency": "inconclusive: 10.3 µM [activator, single point]"},
      {"compound": "Cc1ccc(S(=O)(=O)Cc2ccc(C(=O)N3CCN(c4ccccn4)CC3)o2)cc1", "Potency": "inconclusive: 20.6 µM [inhibitor, single point]"},
      {"compound": "O=C(N/N=C/c1ccc(OC(=O)c2ccccc2)cc1)c1cccc(O)c1", "activity change, negative = inhibition": "inactive: 10.6%"},
      {"compound": "COc1cc(OC)c2c(C)cc(=O)oc2c1C(CCN1CCOCC1)c1ccc2c(c1)OCO2", "note": "(configuration not stated)", "Potency": "inconclusive: 5.8 µM [activator, partial curve, poor fit]"},
      {"compound": "O=C(O)CN1C(=O)/C(=C\\c2cccc(OCc3ccc(F)cc3)c2)SC1=S", "activity change, negative = inhibition": "inactive: 0%"},
      {"compound": "O=C(O)CC/C(=C\\c1ccc(Cl)c([N+](=O)[O-])c1)c1nc2ccccc2s1", "activity change, negative = inhibition": "inactive: -15.1%"},
      {"compound": "CC(=O)N1CCc2cc(S(=O)(=O)NC(C(=O)NC(C)c3ccccc3)C(C)C)ccc21", "note": "(configuration not stated)", "activity change, negative = inhibition": "inactive: 2.05%"},
      {"compound": "CCN=C1SC(C(=O)Nc2cccc(OCC)c2)CC(=O)N1CC", "note": "(configuration not stated)", "Potency": "inconclusive: 25.9 µM [inhibitor, single point]"},
      {"compound": "CC1CCN(C(=O)CSc2nnc(CN3CCOCC3)n2-c2ccccc2)CC1", "activity change, negative = inhibition": "inactive: 11.1%"},
      {"compound": "O=C(COC(=O)c1n[nH]c(=O)c2ccccc12)Nc1ccccc1", "activity change, negative = inhibition": "inactive: -1.02%"},
      {"compound": "O=C(Nc1nnc(C2=COCCO2)o1)c1ccc(Cc2ccccc2)cc1", "Potency": "inconclusive: 16.4 µM [inhibitor, single point]"},
      {"compound": "O=CN1CCN(C(=O)c2ccc3c(c2)OCO3)CC1", "Potency": "inconclusive: 0.82 µM [inhibitor, single point]"},
      {"compound": "CCOc1cc(OCC)cc(C(=O)Nc2cccnc2)c1", "Potency": "inconclusive: 23.1 µM [inhibitor, single point]"},
      {"compound": "O=C(NCCC1=CCCCC1)c1ccc(Cl)c([N+](=O)[O-])c1", "Potency": "inconclusive: 20.6 µM [activator, partial curve]"},
      {"compound": "COc1ccc(N(CC(=O)NCc2ccco2)S(C)(=O)=O)cc1Cl", "activity change, negative = inhibition": "inactive: 13.3%"},
      {"compound": "O=C(Nc1cc2c(cc1Br)OCCCO2)c1ccccc1", "Potency": "inconclusive: 14.6 µM [activator, partial curve]"},
      {"compound": "O=C(O)c1cc(=O)c2ccccc2[nH]1", "activity change, negative = inhibition": "inactive: 24.5%"},
      {"compound": "Cc1cccc(NC(=O)CC2C(=O)NCCN2C(=S)Nc2ccccc2)c1", "note": "(configuration not stated)", "activity change, negative = inhibition": "inactive: 9.87%"},
      {"compound": "Cc1ccc(-c2noc(C3CCCN(C(=O)C4CCCCC4)C3)n2)o1", "note": "(configuration not stated)", "Potency": "inconclusive: 29.1 µM [inhibitor, single point]"},
      {"compound": "CC(C)(C)c1ccc(NC(=O)COc2ccc(-n3ccnc3)cc2)cc1", "Potency": "inconclusive: 20.6 µM [activator, single point]"},
      {"compound": "O=C(NC1CCCCC1)C(=S)NCc1ccccc1", "Potency": "inconclusive: 18.3 µM [activator, single point]"},
      {"compound": "O=C(COC(=O)c1cc([N+](=O)[O-])ccc1N1CCOCC1)Nc1ccc(Cl)cn1", "activity change, negative = inhibition": "inactive: -7.52%"},
      {"compound": "Cc1ccc(OCc2ccc(C(=O)NCC3CCCO3)cc2)cc1C", "note": "(configuration not stated)", "activity change, negative = inhibition": "inactive: -5.49%"},
      {"compound": "O=C(N/N=C(\\Cc1ncc[nH]1)c1ccccc1)c1ccccc1", "Potency": "inconclusive: 6.51 µM [inhibitor, single point]"},
      {"compound": "Cc1ccc(S(=O)(=O)Oc2ccc(/C=N/N=C3/NC(=O)C(CC(=O)O)S3)cc2)cc1", "note": "(configuration not stated)", "activity change, negative = inhibition": "inactive: 5.82%"},
      {"compound": "CCOC(=O)c1ccc(NC(=O)c2nc[nH]c2C(=O)N2CCN(C(=O)OC(C)(C)C)CC2)cc1", "Potency": "inconclusive: 20.6 µM [inhibitor, single point]"},
      {"compound": "CCN(C[C@H]1N[C@@](Cc2ccccc2)(C(=O)OC)[C@H]2C(=O)N(Cc3ccccc3)C(=O)[C@@H]12)C(=O)NC(C)C", "Potency": "inconclusive: 18.3 µM [inhibitor, single point]"},
      {"compound": "COc1ccc(/C=C(/NC(=O)c2ccco2)C(=O)NCc2ccco2)cc1OC", "activity change, negative = inhibition": "inactive: 17.9%"},
      {"compound": "CC(=O)c1ccc(-c2cccc(-c3nc4ccccn4c3NC3CCCCC3)c2)cc1", "Potency": "active: 3.55 µM"},
      {"compound": "COc1cccc(N=c2oc3cc(O)ccc3cc2C(=O)NCC2CCCO2)c1", "note": "(configuration not stated)", "Potency": "active: 4.11 µM"},
      {"compound": "O=C(c1ccccc1)N1CCN(C2c3cccc4cccc(c34)C2NS(=O)(=O)c2ccccc2)CC1", "note": "(configuration not stated)", "Potency": "inconclusive: 20.6 µM [inhibitor, single point]"},
      {"compound": "COc1ccc(C(CNC(=O)c2ccc(C)c(S(=O)(=O)N3CCCCC3)c2)N(C)C)cc1OC", "note": "(configuration not stated)", "activity change, negative = inhibition": "inactive: -13.2%"},
      {"compound": "COc1ccccc1NS(=O)(=O)c1cc(NC(=O)c2ccc(Cl)nc2)ccc1Cl", "Potency": "active: 13 µM"},
      {"compound": "Clc1ccc(-c2cc(CN3CCOCC3)no2)cc1", "Potency": "inconclusive: 14.6 µM [activator, partial curve]"},
      {"compound": "CCOc1ccc(N2C(=O)CC(N(CCc3ccc(OC)cc3)C(=O)c3cccc(F)c3)C2=O)cc1", "note": "(configuration not stated)", "Potency": "inconclusive: 16.4 µM [inhibitor, single point]"},
      {"compound": "COc1ccc(-c2cc(=O)c3cc(OC)ccc3[nH]2)cc1", "Potency": "inconclusive: 1.3 µM [activator, full curve]"},
      {"compound": "O=C(O)c1cccc(Cl)n1", "activity change, negative = inhibition": "inactive: 0%"}
    ]}
  ]
}
